Test [1] has as its target T1, PICH (PLK-1 interacting checkpoint helicase) (human (endogenous in HeLa)) (UniProt Q2NKX8).
T1 sequence: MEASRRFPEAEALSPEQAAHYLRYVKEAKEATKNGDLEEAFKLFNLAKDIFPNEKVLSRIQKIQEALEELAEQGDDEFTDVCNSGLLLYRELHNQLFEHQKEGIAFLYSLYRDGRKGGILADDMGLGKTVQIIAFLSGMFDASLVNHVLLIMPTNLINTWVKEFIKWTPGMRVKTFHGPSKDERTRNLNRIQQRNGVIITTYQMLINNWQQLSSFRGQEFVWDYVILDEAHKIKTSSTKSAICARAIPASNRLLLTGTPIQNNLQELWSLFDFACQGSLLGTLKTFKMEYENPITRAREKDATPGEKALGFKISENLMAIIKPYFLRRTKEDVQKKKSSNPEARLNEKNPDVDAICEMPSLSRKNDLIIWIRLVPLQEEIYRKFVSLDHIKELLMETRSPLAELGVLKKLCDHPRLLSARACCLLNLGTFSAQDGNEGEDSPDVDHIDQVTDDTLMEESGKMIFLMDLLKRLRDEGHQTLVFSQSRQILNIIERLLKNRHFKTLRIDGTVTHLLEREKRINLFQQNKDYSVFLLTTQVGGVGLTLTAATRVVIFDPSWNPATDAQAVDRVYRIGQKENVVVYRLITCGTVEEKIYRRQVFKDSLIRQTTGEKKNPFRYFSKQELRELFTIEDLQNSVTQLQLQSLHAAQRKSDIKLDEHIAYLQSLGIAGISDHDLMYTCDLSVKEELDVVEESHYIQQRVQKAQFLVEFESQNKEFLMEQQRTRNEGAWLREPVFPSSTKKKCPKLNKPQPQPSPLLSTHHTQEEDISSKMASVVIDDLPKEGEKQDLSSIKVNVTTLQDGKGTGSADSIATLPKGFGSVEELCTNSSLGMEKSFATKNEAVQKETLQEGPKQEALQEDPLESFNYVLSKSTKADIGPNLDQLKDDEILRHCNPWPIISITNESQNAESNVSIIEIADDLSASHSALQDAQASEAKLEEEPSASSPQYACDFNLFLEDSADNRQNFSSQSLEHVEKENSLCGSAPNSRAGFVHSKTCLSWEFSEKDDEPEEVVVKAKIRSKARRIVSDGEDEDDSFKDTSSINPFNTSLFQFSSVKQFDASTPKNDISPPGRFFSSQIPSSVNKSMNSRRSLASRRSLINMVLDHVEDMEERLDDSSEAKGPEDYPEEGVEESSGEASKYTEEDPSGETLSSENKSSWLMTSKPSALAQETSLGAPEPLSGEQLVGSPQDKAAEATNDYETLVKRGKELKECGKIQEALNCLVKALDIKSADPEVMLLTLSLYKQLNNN
Description: co-IP.

Test [2] concerns the target T2, Nuclear factor erythroid 2 (NFE2)-related factor 2 (Nrf2) (human (endogenous in HeLa)) (UniProt Q16236).
T2 sequence: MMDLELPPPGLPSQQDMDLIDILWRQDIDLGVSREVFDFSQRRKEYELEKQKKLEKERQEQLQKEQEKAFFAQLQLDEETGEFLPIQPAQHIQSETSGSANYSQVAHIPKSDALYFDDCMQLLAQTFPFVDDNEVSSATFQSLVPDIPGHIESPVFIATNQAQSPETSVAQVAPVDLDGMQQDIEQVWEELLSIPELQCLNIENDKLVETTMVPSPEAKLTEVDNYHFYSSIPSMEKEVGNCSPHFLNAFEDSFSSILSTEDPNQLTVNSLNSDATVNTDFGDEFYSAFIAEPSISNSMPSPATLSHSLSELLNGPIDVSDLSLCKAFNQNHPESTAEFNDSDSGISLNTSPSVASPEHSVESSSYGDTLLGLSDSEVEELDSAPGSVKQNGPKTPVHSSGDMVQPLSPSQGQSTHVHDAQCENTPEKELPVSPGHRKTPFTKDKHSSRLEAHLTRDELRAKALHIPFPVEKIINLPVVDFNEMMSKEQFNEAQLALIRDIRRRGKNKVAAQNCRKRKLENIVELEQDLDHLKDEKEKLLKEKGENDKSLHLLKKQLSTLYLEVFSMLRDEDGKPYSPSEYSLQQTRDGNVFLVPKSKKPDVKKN
The experiment in a line: co-IP.

Results are given in words; binding and its absence hold for the method and conditions named. In cells and extracts the contact can be indirect. Some binding calls cover weakened binding; strength is not graded here.

B1: Nuclear factor erythroid 2 (NFE2)-related factor 2 (Nrf2) (protein, UniProt Q16236 1-605)
chain: MMDLELPPPGLPSQQDMDLIDILWRQDIDLGVSREVFDFSQRRKEYELEKQKKLEKERQEQLQKEQEKAFFAQLQLDEETGEFLPIQPAQHIQSETSGSANYSQVAHIPKSDALYFDDCMQLLAQTFPFVDDNEVSSATFQSLVPDIPGHIESPVFIATNQAQSPETSVAQVAPVDLDGMQQDIEQVWEELLSIPELQCLNIENDKLVETTMVPSPEAKLTEVDNYHFYSSIPSMEKEVGNCSPHFLNAFEDSFSSILSTEDPNQLTVNSLNSDATVNTDFGDEFYSAFIAEPSISNSMPSPATLSHSLSELLNGPIDVSDLSLCKAFNQNHPESTAEFNDSDSGISLNTSPSVASPEHSVESSSYGDTLLGLSDSEVEELDSAPGSVKQNGPKTPVHSSGDMVQPLSPSQGQSTHVHDAQCENTPEKELPVSPGHRKTPFTKDKHSSRLEAHLTRDELRAKALHIPFPVEKIINLPVVDFNEMMSKEQFNEAQLALIRDIRRRGKNKVAAQNCRKRKLENIVELEQDLDHLKDEKEKLLKEKGENDKSLHLLKKQLSTLYLEVFSMLRDEDGKPYSPSEYSLQQTRDGNVFLVPKSKKPDVKKN
For B1, the binding entry in test [1] was “binds”.

B2: PICH (PLK-1 interacting checkpoint helicase) (protein, UniProt Q2NKX8 1-1250)
chain: MEASRRFPEAEALSPEQAAHYLRYVKEAKEATKNGDLEEAFKLFNLAKDIFPNEKVLSRIQKIQEALEELAEQGDDEFTDVCNSGLLLYRELHNQLFEHQKEGIAFLYSLYRDGRKGGILADDMGLGKTVQIIAFLSGMFDASLVNHVLLIMPTNLINTWVKEFIKWTPGMRVKTFHGPSKDERTRNLNRIQQRNGVIITTYQMLINNWQQLSSFRGQEFVWDYVILDEAHKIKTSSTKSAICARAIPASNRLLLTGTPIQNNLQELWSLFDFACQGSLLGTLKTFKMEYENPITRAREKDATPGEKALGFKISENLMAIIKPYFLRRTKEDVQKKKSSNPEARLNEKNPDVDAICEMPSLSRKNDLIIWIRLVPLQEEIYRKFVSLDHIKELLMETRSPLAELGVLKKLCDHPRLLSARACCLLNLGTFSAQDGNEGEDSPDVDHIDQVTDDTLMEESGKMIFLMDLLKRLRDEGHQTLVFSQSRQILNIIERLLKNRHFKTLRIDGTVTHLLEREKRINLFQQNKDYSVFLLTTQVGGVGLTLTAATRVVIFDPSWNPATDAQAVDRVYRIGQKENVVVYRLITCGTVEEKIYRRQVFKDSLIRQTTGEKKNPFRYFSKQELRELFTIEDLQNSVTQLQLQSLHAAQRKSDIKLDEHIAYLQSLGIAGISDHDLMYTCDLSVKEELDVVEESHYIQQRVQKAQFLVEFESQNKEFLMEQQRTRNEGAWLREPVFPSSTKKKCPKLNKPQPQPSPLLSTHHTQEEDISSKMASVVIDDLPKEGEKQDLSSIKVNVTTLQDGKGTGSADSIATLPKGFGSVEELCTNSSLGMEKSFATKNEAVQKETLQEGPKQEALQEDPLESFNYVLSKSTKADIGPNLDQLKDDEILRHCNPWPIISITNESQNAESNVSIIEIADDLSASHSALQDAQASEAKLEEEPSASSPQYACDFNLFLEDSADNRQNFSSQSLEHVEKENSLCGSAPNSRAGFVHSKTCLSWEFSEKDDEPEEVVVKAKIRSKARRIVSDGEDEDDSFKDTSSINPFNTSLFQFSSVKQFDASTPKNDISPPGRFFSSQIPSSVNKSMNSRRSLASRRSLINMVLDHVEDMEERLDDSSEAKGPEDYPEEGVEESSGEASKYTEEDPSGETLSSENKSSWLMTSKPSALAQETSLGAPEPLSGEQLVGSPQDKAAEATNDYETLVKRGKELKECGKIQEALNCLVKALDIKSADPEVMLLTLSLYKQLNNN
For B2, in test [2], the binding entry is on record as “binds”.

(Values after publication doi:10.1101/2021.07.21.453306.)
